Measurements reported in PubChem BioAssay AID602196 (INSERM, 2012).

Assay: 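Knock-downs that protect lung cancer cells from cisplatin or sensitise them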
Cells: human A549 lung cancer cells
Reagent: siRNA pair against human genes
Time to read-out: 48 h transfection before cisplatin; time from cisplatin to read-out not stated
Challenge: cisplatin at a dose killing half of control-siRNA cells; exact dose and duration not given
Detection: 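Cisplatin cell death as a shift from the 50% death seen with control siRNA; siRNAs toxic or growth-blocking alone scored 0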
Reading the numbers: two-siRNA summed score (-2 to +2): higher = both siRNAs protect from cisplatin killing; -2 means both sensitise
Rule for the call: 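siRNAs harmful alone (LDH or WST-1) get 0; others get +1 for less and -1 for more cisplatin killing; genes are active when the two siRNAs give the same sign, summing to ±2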
Meaning of the calls: active = both siRNAs shift cisplatin killing the same way; inactive = no consistent shift, or siRNA harmful alone
The deposit covers about 23,000 reagents; shown is an unselected part. 455 of them (2%) were called active. 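Active includes both protection and sensitisation; some change values fall well beyond the stated -50 to +50 range.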 Reagents against one gene are numbered here. Further read-outs or replicates are left out here. Not stated in the record: the amount of reagent.

no.	target	reagent no.	two-siRNA summed score (-2 to +2)	outcome
1	MPHOSPH6	1	1	inactive
2	LHB	1	-1	inactive
3	GYG2	1	0	inactive
4	CD163L1	1	0	inactive
5	SOD2	1	0	inactive
6	PLOD3	1	-1	inactive
7	CRIP3	1	0	inactive
8	SREBF1	1	0	inactive
9	CHSY1	1	0	inactive
10	ARHGEF37	1	0	inactive
11	MYDGF	1	0	inactive
12	CHST6	1	0	inactive
13	UGT1A3	1	0	inactive
14	NFYB	1	0	inactive
15	C8B	1	1	inactive
16	SRSF4	1	0	inactive
17	ADIPOR2	1	1	inactive
18	HTT	1	0	inactive
19	RS1	1	1	inactive
20	CYP4F12	1	0	inactive
21	LOC387781	1	1	inactive

4 entries already listed, ordered by “two-siRNA summed score (-2 to +2)”, highest first.
target	reagent no.	two-siRNA summed score (-2 to +2)	outcome
CHSY1	1	0	inactive
ARHGEF37	1	0	inactive
MYDGF	1	0	inactive
CHST6	1	0	inactive

The list goes on:
no.	target	reagent no.	two-siRNA summed score (-2 to +2)	outcome
22	PHF12	1	-1	inactive
23	LYZL1	1	0	inactive
24	PTPN6	1	0	inactive
25	ARL2BP	1	1	inactive
26	FUS	1	0	inactive
27	LOC441816	1	0	inactive
28	F10	1	0	inactive
29	MARS2	1	1	inactive
30	KIF5A	1	-1	inactive
31	LOC440592	1	0	inactive
32	LGALSL	1	0	inactive
33	ANP32CP	1	0	inactive
34	LOC441766	1	0	inactive
35	TOP3B	1	0	inactive
36	LOC391044	1	1	inactive
37	SEC11A	1	0	inactive
38	LOC441831	1	0	inactive
39	PRR13	1	0	inactive
40	MED30	1	0	inactive
41	H2BC1	1	0	inactive
42	RASSF1	1	-1	inactive
43	LOC127295	1	0	inactive
44	DCTD	1	0	inactive
45	DCTD	2	0	inactive
46	LOC389846	1	0	inactive
47	SLC39A10	1	0	inactive
48	DAP3	1	-1	inactive
49	CORO1C	1	0	inactive
50	OR4K1	1	0	inactive
51	UTP14A	1	0	inactive
52	LINC02694	1	0	inactive
53	CCR9	1	0	inactive
54	MROH8	1	1	inactive
55	ZNF528-AS1	1	1	inactive
56	ADAM2	1	0	inactive
57	CALM1	1	-1	inactive
